First the molecules themselves.
B1: tRNA (parent)
chain: GUUCCGUUGGCGUAAUGGUAACGCGUCUCCCUCCUAAGGAGAAGACUGCGGGUUCGAGUCCCGUACGGAACG

From the RNAGym collection of RNA variant scans (doi:10.1126/science.aae0568) come the findings set out here.

Variants at the background level are over-represented here.

The series covers variants of B1. Kind of series: yeast fitness relative to wild type (ratio to wild type); higher = fitter; tRNA-Arg(CCU), competitive growth, 37 C, YPD. The method, boiled down:
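A pool of Saccharomyces cerevisiae strains, each with a tRNA-Arg(CCU) gene variant at the native genomic locus, was competed in YPD at 37°C for 24 hours across six parallel replicates. The variants had been chemically synthesised at a 3% per-site mutation rate over 69 sites, and gene amplicons before and after competition were read by 100-nucleotide paired-end sequencing. Darwinian fitness relative to wild type rested on changes in genotype frequencies. Genotypes required ≥ 100 starting reads, and estimates < 0.5 were set to 0.5.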
U32A C60G G68U: the yeast fitness is no more than 0.5. As to G17C C30G C55G A70G, the yeast fitness is no more than 0.5. Regarding C5U G6C A15C U26A G38C A43C, the yeast fitness is no more than 0.5.

With U7G C11U A20G C24U C31G, the yeast fitness is no more than 0.5. On to C4U C27U G63U U64G, for which the yeast fitness is no more than 0.5. With C4U G44C G67A the figure was 0.768. With C5U U28C U32C G39A C60U C61G the figure was no more than 0.5; with U2A G41C G50C A65C, no more than 0.5. With C27A C30G A42C C61G the figure was 1.01; with U26C C29U U35C G63A, no more than 0.5.

For the variant U2G A65U C66G, the yeast fitness was no more than 0.5.

In the case of G6C C11G A14U C22U G44A C55A G67A, the yeast fitness was no more than 0.5.

Take C4G A20U C46U: the yeast fitness is 0.614. The figure for G38C A45C C46G G51C is no more than 0.5. Regarding U7G A20G C46U G68C, the yeast fitness is no more than 0.5. With C5G C30A A40G the figure was no more than 0.5.

With A36G A43C A65U, the yeast fitness is no more than 0.5. The figure for C4G G6A C24U A40U G56C is no more than 0.5; for A20G C31U A42U C46U A65C it is no more than 0.5. Consider C27G C34A C61U, for which the yeast fitness was no more than 0.5. Consider C5U A14C C46A C61G, for which the yeast fitness is no more than 0.5. With C4A A40C A43C C49U C61U the figure was no more than 0.5; with C4U A14U A36U A65U, no more than 0.5; with C30G A42G U47C, no more than 0.5.

With C4G G9C C22A C49G U53A, the yeast fitness was no more than 0.5. With U2G C4A U16C C61G the figure was 0.571; with C30U U32C C55A G56A G67A, no more than 0.5.

Consider C4G G10A G41C C62A, for which the yeast fitness is no more than 0.5.

On to U2A C33U A37C C55U, for which the yeast fitness is no more than 0.5.

Turning to U7A A20C A40U G44A C61A, the yeast fitness was no more than 0.5. The figure for C49U C60A C62U is no more than 0.5.

Turning to C31A C49G A57U, the yeast fitness is no more than 0.5. A36U G44C: the yeast fitness came out at 0.629.

In the case of A21U C30A A42G G67A, the yeast fitness is no more than 0.5. With C5U G10A the figure was 0.702; with U3A A14U G41C A70G, no more than 0.5.

For the variant U7C A15C G38A A45G G52A, the yeast fitness is no more than 0.5. With C5G C11A A20G U28C C33U the figure was no more than 0.5; with C4A A40U G67U A70C, no more than 0.5. The figure for C11U C31A G41C C60G is no more than 0.5; for C11G A40C C46U C60A it is no more than 0.5. With C30G U53C C55A U64A the figure was no more than 0.5; with G17C C49G, 0.743. Turning to G25U U64G, the yeast fitness was determined as 0.788. Turning to G10C G18C C30U C62A, the yeast fitness was no more than 0.5. C34U A37C A65U: the yeast fitness was no more than 0.5. As to G12C C29U G38C, the yeast fitness was no more than 0.5.

Regarding C5G G18A G50A G51C, the yeast fitness is no more than 0.5. With U3G C11U U19C A20U A42C A65G the figure was no more than 0.5. The figure for C22A C24A A43U is no more than 0.5; for C5G A21C C33G C55A it is no more than 0.5. As for U13C A15G C62A, the yeast fitness is no more than 0.5.

Regarding G23C G39C, the yeast fitness was 0.53. Take U7G A14C C34G: the yeast fitness was no more than 0.5. The figure for C5U C22A C27U G56A is no more than 0.5. As for A45U C46G A69C, the yeast fitness is no more than 0.5.

For U3G C5G G10A C31G G58C G67C, the yeast fitness was no more than 0.5. On to U13A C24G G25A, for which the yeast fitness is no more than 0.5. The figure for G25C U32G G38A C61U A70C is no more than 0.5; for U7G A14C C24G C31A C33G G44C it is no more than 0.5. For G39A U53G U64A, the yeast fitness is no more than 0.5. The figure for A43U G56C C61A is no more than 0.5. Take G9C C11G G12C U28C C61U: the yeast fitness worked out at 0.747. With U28G U64C the figure was 0.864; with C5U A20U C61U C62U, no more than 0.5. As for A43U C61A, the yeast fitness is 0.764. The figure for U3A G6A U7C C62G G63C is no more than 0.5. Consider A42C G51A A65U, for which the yeast fitness is no more than 0.5. The figure for U2C C5G G9A A15U A42C C46U is no more than 0.5; for C30U A40U C60U it is no more than 0.5.

Consider U2A C31U A36U A69C, for which the yeast fitness is no more than 0.5. With U3A A14G G23C C61U G67U the figure was no more than 0.5.

Regarding U16A A42U G44C, the yeast fitness is no more than 0.5.

Turning to U2A A20C C33A C55U, the yeast fitness is no more than 0.5.

Regarding C24U C33U C46U C49A C62U, the yeast fitness is no more than 0.5. The figure for G23A A36C A37C U53G A70C is no more than 0.5.

Consider C27U U35A G50C G51C, for which the yeast fitness was no more than 0.5. Take G10C G18C A45C G56C: the yeast fitness is no more than 0.5.

With U26G C62G, the yeast fitness is 0.755. As for G18C C34U A69C, the yeast fitness was no more than 0.5. As for C22G C27U U59A G63A A70U, the yeast fitness is no more than 0.5. G39C G63A A69C: the yeast fitness was no more than 0.5. With C31U G50A A70U the figure was 0.677; with C11U C34U G48A C66A, no more than 0.5.
